# Data as given in PubChem BioAssay AID445 (National Center for Advancing Translational Sciences (NCATS), 2006).
# This is one part of the list. Further columns of the screen follow, without active or inactive calls. Most of these compounds were active or inconclusive in the main read-out, so they are no random draw. Potencies come from curve fits of mixed quality, noted in brackets.
# Assay: IkB Signaling
# Settings: ABC-DLBCL IkBa-CBG/CBR dual luciferase ratio (green luciferase fused to IkBa over red control in OCI-Ly3 lymphoma cells), 4 h
# Outline: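 Curves were fitted separately to fusion (green), unfused (red) and ratio luminescence, then classed by r2, magnitude and activity. Cells: OCI-Ly3, 4 h compound plus doxycycline at 37C; 10 uM MG-132 defined full response.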
# [1] = measured here: control luc red channel unless noted
# [2] = measured here: IkB-luc green channel
# [3] = measured here: control luc red channel
compound,measurement,setting,value
C=CCn1c(SCC(=O)/C(C#N)=C(\C)N)nc2sc(CC)cc2c1=O,AC50,[1],"25.1 µM [falling, single point]"
CCCOCc1cc(CN2CCN(c3ccccc3OC)CC2)c(O)c2ncccc12,AC50,[1],"12.6 µM [falling, partial curve]"
O=C(NCc1ccc(Cl)cc1)c1cnc(N2CCOCC2)c2ccccc12,AC50,[1],"20 µM [falling, single point]"
Cc1ccc(CSCCNC(=O)CN(c2cccc(C)c2C)S(=O)(=O)c2ccccc2)cc1,AC50,[1],"10 µM [falling, partial curve]"
CC1CCCN(S(=O)(=O)c2cc(C(=O)NCCc3ccccc3)n(C)c2)C1 (stereo not drawn),AC50,[1],"10 µM [falling, partial curve]"
COc1ccc(CNC(=O)c2ccc3c(c2)CCN3S(=O)(=O)c2ccccc2)cc1,AC50,[1],"15.8 µM [falling, partial curve]"
COc1ccc(N2CCN(c3nc4ccccc4n4c(C)nnc34)CC2)cc1,AC50,[1],"31.6 µM [falling, partial curve, poor fit]"
CCOC(=O)c1ccc(NC(=O)c2cc(S(=O)(=O)N3CCOCC3)ccc2O)cc1,AC50,[1],"10 µM [falling, partial curve]"
O=C(CCCSc1nc(-c2ccco2)cc(C(F)(F)F)n1)NCc1cccs1,AC50,[1],"25.1 µM [falling, partial curve]"
CCOc1ccc(C(=O)Nc2ccc3nc4c(c(Nc5ccccc5OC)c3c2)CCCC4)cc1,AC50,[1],"10 µM [falling, partial curve]"
O=C(Nc1nc(-c2ccc(S(=O)(=O)N3CCCCCC3)cc2)cs1)c1cccs1,AC50,[1],"5.01 µM [falling, full curve, poor fit]"
O=C(CC1N=C2c3ccccc3N=C(SCC(=O)Nc3ccccc3F)N2C1=O)NCc1ccc2c(c1)OCO2 (stereo not drawn),AC50,[1],"39.8 µM [falling, single point]"
Cc1cc(O)c(-c2n[nH]c3c2C(c2cccc(O)c2)N(Cc2cccnc2)C3=O)cc1Cl (stereo not drawn),AC50,[1],"12.6 µM [falling, partial curve]"
COc1cc(OC)c(NC(=O)C(C)n2nc(-c3ccc(C)cc3)c3c(c2=O)CCCC3)cc1Cl (stereo not drawn),AC50,[1],"10 µM [falling, partial curve]"
N#Cc1ccccc1NC(=O)C(=O)NCC(c1cccnc1)N1CCc2ccccc21 (stereo not drawn),AC50,[1],"25.1 µM [falling, single point]"
c1ccc(-n2ncc(-c3nn[nH]n3)n2)cc1,AC50,[2],"1.58 µM [rising, single point]"
same,AC50,[3],"25.1 µM [falling, partial curve]"
COC(=O)c1ccc(NC(=O)CSc2nc3cc4ccccc4cc3[nH]2)cc1,AC50,[1],"0.0398 µM [falling, full curve, poor fit]"
CCOC(=O)CC(NC(=O)CCc1c(C)nc2cc(-c3ccccc3)nn2c1C)c1ccc(C)cc1 (stereo not drawn),AC50,[1],"1.26 µM [falling, full curve]"
O=C(c1ccccc1)c1ccc2nc(N3CCN(c4ccc(F)cc4)CC3)c3nncn3c2c1,AC50,[1],"3.16 µM [falling, partial curve, poor fit]"
COc1ccccc1-c1cc2nc(C)c(CCC(=O)NC3CCCCC3)c(C)n2n1,AC50,[1],"1 µM [falling, full curve]"
Cc1ccc(-c2nc(CNC(=O)NC3CCCCC3)c(C)o2)cc1,AC50,[1],"31.6 µM [falling, partial curve, poor fit]"
CC(=O)c1cccc(NC(=O)Nc2cc3c(cc2N2CCCC2)n(C)c(=O)n3C)c1,AC50,[1],"31.6 µM [rising, partial curve] [measured here: IkB-luc green channel]"
CCc1ccc(C(=O)Nc2cccc(-c3nc4cc(C(C)C)ccc4o3)c2)cc1,AC50,[1],"0.398 µM [falling, full curve]"
CCn1c(=O)c(C(=O)NCCc2ccccc2)c(O)c2ccccc21,AC50,[1],"1 µM [falling, partial curve]"
COc1ccc(Cn2c(SCc3ccc(C(=O)NCc4cccs4)cc3)nc3ccncc32)cc1,AC50,[1],"12.6 µM [falling, partial curve]"
O=S(=O)(c1ccccc1)c1nc(-c2ccco2)oc1SCc1ccc(F)cc1,AC50,[1],"0.1 µM [rising, full curve, poor fit]"
O=C(CCCn1c(=O)[nH]c2ccsc2c1=O)N1CCN(c2ccc(Cl)cc2)CC1,AC50,[1],"25.1 µM [falling, partial curve]"
O=C(CSc1nnc(-c2ccc(Cl)cc2)c(-c2ccc(Cl)cc2)n1)NC1CCCC1,AC50,[1],"12.6 µM [falling, partial curve]"
CCOC(=O)c1c(C)[nH]c(C)c1S(=O)(=O)N(C)CC(=O)N1CCN(c2cccc(Cl)c2)CC1,AC50,[1],"12.6 µM [falling, partial curve]"
Cc1cc(C)cc(NC(=O)Cn2c(=O)n(CC(=O)NCCc3ccccc3)c(=O)c3ccccc32)c1,AC50,[1],"12.6 µM [falling, partial curve]"
COc1ccc(C(=O)Nc2nnc(SCc3cc(=O)n4cc(Cl)ccc4n3)s2)cc1,AC50,[1],"7.94 µM [falling, single point]"
Cc1ccc(C(=O)c2cn(Cc3c(F)cccc3Cl)c3nc(C)ccc3c2=O)cc1,AC50,[1],"20 µM [falling, partial curve]"
Cc1cccc(NC(=O)Nc2cccc(C#N)c2)n1,AC50,[1],"3.98 µM [falling, full curve, poor fit]"
CCCCc1nn2c(=O)cc(COC(=O)c3cccs3)nc2s1,AC50,[1],"20 µM [falling, partial curve]"
Cc1ccc(NC(=O)CSC2=C(C#N)C(c3ccco3)C3=C(CC(C)(C)CC3=O)N2)cc1 (stereo not drawn),AC50,[1],"12.6 µM [falling, partial curve]"
Clc1cccc(-n2ncc3c(N4CCCCCC4)ncnc32)c1,AC50,[1],"39.8 µM [falling, single point]"
Cc1cc(C(=O)N2CCN(c3cc(Cl)ccc3C)CC2)c2c(C)nn(-c3ccccc3)c2n1,AC50,[1],"12.6 µM [falling, partial curve]"
Cc1ccc(CNC(=O)c2cccc(Nc3nc4ccccc4n4nnnc34)c2)cc1,AC50,[1],"2.51 µM [falling, full curve]"
Cn1c(CCNC(=O)c2ccco2)nc2cc(NC(=O)C3CCCCC3)ccc21,AC50,[1],"15.8 µM [falling, partial curve]"
COc1cc(OC)c(NC(=O)c2c(C)oc3ncnc(N4CCCCC4)c23)cc1Cl,AC50,[1],"39.8 µM [falling, single point]"
COc1cccc(Nc2ncc3ncc(=O)n(Cc4cccs4)c3n2)c1,AC50,[2],"2.51 µM [falling, partial curve]"
same,AC50,[3],"3.16 µM [falling, partial curve]"
Cc1ccc(N2CC(NC(=O)Cc3ccc(F)cc3)CC2=O)cc1 (stereo not drawn),AC50,[1],"0.316 µM [rising, partial curve]"
O=C(Cn1c(=O)n(Cc2ccc(C(=O)NCc3ccc4c(c3)OCO4)cc2)c(=O)c2ccccc21)Nc1cccc(Cl)c1,AC50,[1],"3.16 µM [rising, partial curve, poor fit]"
Cc1noc(-c2ccc(-c3noc(-c4ccccc4)n3)cc2)n1,AC50,[1],"1 µM [rising, single point]"
CCc1oc2ccccc2c1C(=O)CCN1CCCCC1,AC50,[1],"20 µM [falling, single point]"
O=C(c1ccco1)N1CCN(C(c2cccs2)c2sc3ncnn3c2O)CC1 (stereo not drawn),AC50,[1],"5.01 µM [falling, partial curve]"
CCC(C(=O)NCc1ccc2c(c1)CCN2C(=O)c1ccc(F)cc1)c1ccccc1 (stereo not drawn),AC50,[1],"25.1 µM [falling, partial curve]"
CCOC(=O)/C=C/S(=O)(=O)c1ccc(NC(C)=O)cc1,AC50,[2],"7.94 µM [falling, full curve]"
same,AC50,[3],"5.01 µM [falling, partial curve]"
CCOc1ccc(C(=O)NCCn2cc(SCC(=O)Nc3cc(C)on3)c3ccccc32)cc1,AC50,[1],"12.6 µM [falling, partial curve]"
CC(=O)c1cc(-c2ccccc2)n(CCC(=O)Nc2nc3c(C)cccc3s2)c1C,AC50,[1],"10 µM [rising, partial curve]"
CC1CCN(S(=O)(=O)c2ccc3[nH]cc(C(=O)NCc4ccc(F)cc4)c(=O)c3c2)CC1,AC50,[1],"7.94 µM [rising, full curve, poor fit]"
Cc1n[nH]c(C)c1N1C(=O)c2cccc3c(N4CCCCCC4)ccc(c23)C1=O,AC50,[1],"25.1 µM [falling, partial curve]"
CCN1C(=O)CC(C(=O)Nc2ccc(F)cc2)SC1=Nc1ccc2c(c1)OCO2 (stereo not drawn),AC50,[1],"25.1 µM [falling, partial curve]"
CCCCOc1ccc(S(=O)(=O)Nc2cccc(-c3ccc(N4CCOCC4)nn3)c2)cc1,AC50,[1],"15.8 µM [falling, partial curve]"
COc1ccccc1-c1nc(NC(C)=O)n[nH]1,AC50,[1],"7.94 µM [falling, partial curve]"
CC(Sc1nc(-c2ccccc2)c(C#N)c(=O)[nH]1)C(=O)Nc1ccc(F)cc1 (stereo not drawn),AC50,[1],"7.94 µM [falling, partial curve]"
COc1ccc(N(CC(=O)N2CCN(c3cc(C)ccc3C)CC2)S(=O)(=O)c2c(C)noc2C)cc1,AC50,[1],"10 µM [falling, partial curve]"
O=C(CSc1ccc(Cl)cc1)c1ccco1,AC50,[1],"39.8 µM [rising, single point] [measured here: IkB-luc green channel]"
CCOC(=O)c1cc(-c2ccc(F)cc2)n(CCC(=O)Nc2ccccc2OC)c1C,AC50,[1],"31.6 µM [falling, partial curve]"
Cc1ccc(CSc2nc(=O)c3c(C)cc(C)nc3n2C2CC2)cc1,AC50,[1],"39.8 µM [falling, single point]"

# Shown as tab-separated lines: entries from further up
compound	measurement	setting	value
CC1CCCN(S(=O)(=O)c2cc(C(=O)NCCc3ccccc3)n(C)c2)C1 (stereo not drawn)	AC50	[1]	10 µM [falling, partial curve]
COc1ccc(CNC(=O)c2ccc3c(c2)CCN3S(=O)(=O)c2ccccc2)cc1	AC50	[1]	15.8 µM [falling, partial curve]
COc1ccc(N2CCN(c3nc4ccccc4n4c(C)nnc34)CC2)cc1	AC50	[1]	31.6 µM [falling, partial curve, poor fit]
